According to PubChem BioAssay AID540276 (National Center for Advancing Translational Sciences (NCATS), 2011):
The campaign covered roughly 300,000 compounds. About 5,400 (1.8%) were called active. Inconclusive means that the source gave no clear call. Such entries were picked first, then a sample of the others. The call rests on the fitted dose curve; tested in HEK293 cells. Potencies of inconclusive entries are doubtful fits and often do not repeat.

test: qHTS for inhibitors of binding or entry into cells for Marburg Virus; conditions: Marburg virus pseudotyped entry inhibition, cell reporter; activity change, negative = inhibition: at 37.8 µM (top of the series) unless noted
On the % scale 0 is the no-effect control and ±100 the full control effect; potency means the concentration at half of the fitted maximal effect.

Row | SMILES | activity change, negative = inhibition | Potency
1 | Cc1cc(/C=C2/C(=O)N(C)C(=S)N2C)c(C)n1C1CC1 | inactive: -19.2% | 
2 | CCc1nc(NCC2CCCO2)c2oc3ccccc3c2n1 (configuration not stated) | inactive: 1.64% | 
3 | CCCC1=NN(c2ccc([N+](=O)[O-])cc2)C(=O)/C1=C/N(C)C | inactive: 0.756% | 
4 | CC(=O)OC1COC(N2CCc3cc(Br)c([N+](=O)[O-])cc32)C(OC(C)=O)C1OC(C)=O (configuration not stated) |  | inconclusive: 3.66 µM [inhibitor, partial curve, poor fit]
5 | CCCn1c(N)c(N(CCOC)C(=O)c2ccc(N(C)S(=O)(=O)c3ccc(C)cc3)cc2)c(=O)[nH]c1=O |  | inconclusive: 1.26 µM [inhibitor, single point]
6 | Cc1ccc(-c2nnc(SCC(=O)NCCN3C(=O)CSC3=O)n2C)cc1 |  | inconclusive: 12.6 µM [activator, partial curve, poor fit]
7 | Cc1ccc(C)c(CNS(=O)(=O)c2c(C)[nH]c(C)c2C(=O)N2CCCC2)c1 |  | inconclusive: 3.16 µM [inhibitor, single point]
8 | Cc1cc(-c2ccc(C(C)C)c(S(=O)(=O)N3CCOc4ccccc43)c2)on1 |  | active: 3.16 µM
9 | N#CC1=C(N)SC(N)=C(C#N)C1c1ccc([N+](=O)[O-])cc1 |  | inconclusive: 2.82 µM [inhibitor, single point]
10 | COC(=O)c1cc2oc(C)cc2n1Cc1cc(C)ccc1C | inactive: 6.72% [at 46.1 µM] | 
11 | O=C(CSc1nc2ccccc2[nH]1)N1CCN(c2ccc(F)cc2)CC1 | inactive: -2.4% | 
12 | COc1ccccc1NC1=C(Cl)C(=O)N(c2ccccc2)C1=O | inactive: -3.23% | 
13 | COc1cc(-c2nnc(COc3ccc4cc(Br)ccc4c3)o2)cc(OC)c1OC |  | inconclusive: 6.51 µM [inhibitor, partial curve, poor fit]
14 | O=C(CSc1ccccc1C(=O)NCc1ccccc1)NC12CC3CC(CC(C3)C1)C2 |  | inconclusive: 7.94 µM [inhibitor, partial curve, poor fit]
15 | Cc1[nH]c2ccccc2c1C(=O)COC(=O)c1c(-c2ccccc2)noc1C |  | inconclusive: 31.6 µM [inhibitor, single point]
16 | COc1ccc(CCNC(=O)c2csc3c2CCCCC3)c(OC)c1 |  | inconclusive: 0.631 µM [inhibitor, full curve, poor fit]
17 | Cn1c(-c2cccs2)[n+](C)c2ccccc21 |  | inconclusive: 35.5 µM [inhibitor, single point]
18 | Cc1ccccc1C(=O)NCC(=O)Nc1ccc(C)c(S(=O)(=O)N2CCCCCC2)c1 |  | inconclusive: 10 µM [inhibitor, partial curve, poor fit]
19 | O=C(c1cc(-c2cccs2)nn1-c1ccccc1)N1CCN(S(=O)(=O)c2ccccc2)CC1 |  | inconclusive: 11.2 µM [inhibitor, partial curve, poor fit]
20 | COc1ccc(O[C@H]2C=C[C@@H](c3ccccc3)O[C@H]2COC(=O)CCC(C)=NO[C@@H]2O[C@H](COC(C)=O)[C@@H](OC(C)=O)[C@H](OC(C)=O)[C@@H]2OC(C)=O)cc1 | inactive: -23.1% [at 14.2 µM] | 
21 | O=[n+]1cc(-c2cc3ccccc3o2)n([O-])c2c1CCCC2 |  | inconclusive: 7.3 µM [activator, partial curve, poor fit]
22 | COc1ccc(S(N)(=O)=O)cc1C(=O)NNC(=O)c1cccc(S(=O)(=O)N2CCOCC2)c1 | inactive: 14% | 
23 | COc1cnc(-c2cccc(C(F)(F)F)c2)[nH]c1=O |  | inconclusive: 35.5 µM [activator, single point]

Entries shown so far that have two or more sulfur atoms:
Row | SMILES | activity change, negative = inhibition | Potency
6 | Cc1ccc(-c2nnc(SCC(=O)NCCN3C(=O)CSC3=O)n2C)cc1 |  | inconclusive: 12.6 µM [activator, partial curve, poor fit]
19 | O=C(c1cc(-c2cccs2)nn1-c1ccccc1)N1CCN(S(=O)(=O)c2ccccc2)CC1 |  | inconclusive: 11.2 µM [inhibitor, partial curve, poor fit]
22 | COc1ccc(S(N)(=O)=O)cc1C(=O)NNC(=O)c1cccc(S(=O)(=O)N2CCOCC2)c1 | inactive: 14% | 

Following part

Row | SMILES | activity change, negative = inhibition | Potency
24 | N[C@@H](Cc1c[nH]c2ccc(O)cc12)C(=O)O |  | inconclusive: 0.0708 µM [activator, full curve, poor fit]
25 | O=C(COC(=O)c1ccc(O)cc1O)c1ccc2c(c1)OCO2 | inactive: -0.151% | 
26 | NC(=O)c1cc(-c2ccccc2)nc(N2CCOCC2)n1 |  | inconclusive: 10 µM [inhibitor, partial curve, poor fit]
27 | O=C(NC1CCCCC1)c1cc(S(=O)(=O)N2CCN(c3ccccc3)CC2)ccc1Cl |  | inconclusive: 5.01 µM [inhibitor, full curve, poor fit]
28 | COc1ccc(Nc2nc(-c3ccc4c(c3)NC(=O)CO4)cs2)cc1 | inactive: -18% [at 46.1 µM] | 
29 | COCC(=O)N(C)c1nnc(-c2ccc([N+](=O)[O-])cc2)s1 | inactive: 14.4% | 
30 | CCOC(=O)COc1ccc(S(=O)(=O)NCCC2=CCCCC2)cc1 |  | inconclusive: 0.126 µM [activator, full curve, poor fit]
31 | O=C(NCc1ccccc1)c1ccc(CSc2ccccc2)o1 | inactive: -2.83% [at 46.1 µM] | 
32 | CCCCOc1ccc(C(=O)Nc2cc(-c3ccc(C)cc3)no2)cc1 | inactive: 4.13% [at 46.1 µM] | 
33 | CCOC(=O)COc1ccc(/C=C(\C#N)c2nc3ccc(C)cc3[nH]2)cc1OC | inactive: -0.363% [at 46.1 µM] | 
34 | O=C(NCc1ccccc1)C1CCCN1S(=O)(=O)c1ccc(F)cc1 (configuration not stated) |  | inconclusive: 3.55 µM [inhibitor, partial curve, poor fit]
35 | Cc1ccccc1Cn1c(=N)n(CC(=O)c2ccco2)c2ccccc21 |  | inconclusive: 14.1 µM [inhibitor, partial curve, poor fit]
36 | COc1ccc(CC2(C)OC(c3ccc([N+](=O)[O-])cc3)=NN2C(C)=O)cc1 (configuration not stated) |  | inconclusive: 1 µM [inhibitor, full curve, poor fit]
37 | NNc1nc(NCc2ccccc2)nc(N2CCOCC2)n1 |  | inconclusive: 10 µM [inhibitor, partial curve, poor fit]
38 | CCOc1ccc(C(=O)c2ccc([N+](=O)[O-])cc2Cl)cc1 |  | inconclusive: 35.5 µM [activator, single point]
39 | O/N=C/c1cn(-c2ccccc2)nc1-c1cccnc1 |  | active: 0.794 µM
40 | CCN(CC)S(=O)(=O)c1cc(NC(=O)CCc2c(C)noc2C)ccc1C |  | inconclusive: 2.24 µM [inhibitor, partial curve, poor fit]
41 | CCOC(=O)c1ccc(N/C=C/C(=O)c2ccccc2)cc1 |  | inconclusive: 25.1 µM [inhibitor, single point]
42 | CC(C)NC(=O)NC(=O)COC(=O)Cc1ccsc1 |  | inconclusive: 5.01 µM [activator, single point]
43 | Cc1ccc2c(CC(=O)Nc3cccc(C(F)(F)F)c3)coc2c1 | inactive: 13.3% [at 46.1 µM] | 
44 | CC1(C)Cc2c(c(N3CCOCC3)nc3sc(C(=O)Nc4ccc(Cl)cc4)c(N)c23)CO1 |  | inconclusive: 14.1 µM [activator, single point]
45 | [O-]/[N+](=C/c1ccc(F)cc1)c1ccc(Cl)cc1 |  | inconclusive: 2.82 µM [activator, single point]
46 | CCN(c1ccccc1)S(=O)(=O)c1ccc(OC)c(NC(=O)CCc2nc3ccccc3c(=O)[nH]2)c1 |  | inconclusive: 20 µM [inhibitor, single point]

Row | SMILES | activity change, negative = inhibition | Potency
47 | Cn1c(C(=O)NCC2CCCO2)cc2oc3ccccc3c21 (configuration not stated) |  | inconclusive: 35.5 µM [inhibitor, single point]
48 | CC(=O)c1sc(NC(=O)CS(=O)(=O)c2ccccc2)nc1C |  | inconclusive: 1.12 µM [inhibitor, single point]
49 | CCOC(=O)C1=C(CS(=O)(=O)c2ccccc2)NC(=O)NC1c1ccccc1OCC (configuration not stated) | inactive: 1.57% | 
50 | CCc1ccc(CN(C)C(=O)CCc2nc3ccccc3n(-c3ccc(OC)cc3)c2=O)cc1 |  | active: 10 µM
51 | CC(C)c1csc2nc3n(c(=O)c12)CCCCC3 |  | inconclusive: 5.62 µM [inhibitor, single point]
52 | CCOC(=O)c1c(-c2ccccc2)oc2ccc(O)c(CN(C)C)c12 |  | inconclusive: 16.4 µM [inhibitor, partial curve, poor fit]
53 | COc1cc(/C=N/NC(=O)c2cccnc2)ccc1OS(=O)(=O)c1cc(C)ccc1C |  | inconclusive: 3.16 µM [inhibitor, single point]
54 | c1ccc(CN2CCN(c3nc(-c4ccccc4)nc4ccccc34)CC2)cc1 |  | inconclusive: 1.26 µM [activator, single point]
55 | O=C(CN1C(=O)C2C3C=CC(C3)C2C1=O)NCc1ccccc1 (configuration not stated) | inactive: 2.41% | 
56 | Cn1c(NCc2cccs2)nc2ccccc21 |  | inconclusive: 5.62 µM [activator, single point]
57 | CCOC(=O)c1oc2ccccc2c1CSc1nnc(-c2ccco2)o1 |  | inconclusive: 2.91 µM [activator, partial curve, poor fit]
58 | O=C1c2cccc3c([N+](=O)[O-])ccc(c23)C(=O)N1c1ccccn1 |  | active: 10 µM
59 | Cc1cccc(NC(=O)CCc2nc3sc4c(c3c(=O)[nH]2)CCCC4)c1 |  | inconclusive: 1 µM [activator, single point]
60 | COc1ccc(C2C(C(=O)Nc3ccc(C)cc3C)=C(C)Nc3nc(SC)nn32)cc1OC (configuration not stated) |  | inconclusive: 5.62 µM [activator, single point]
61 | N#C/C(=C\c1ccncc1)c1ccccn1 |  | inconclusive: 1.26 µM [activator, single point]
62 | Cc1cc(C(=O)COc2ccc(Cl)cc2Br)c(C)n1C |  | inconclusive: 15.8 µM [inhibitor, single point]
63 | COc1ccc(S(=O)(=O)N(CC(=O)N2CCN(c3ccccc3OC)CC2)c2ccccc2)cc1 |  | inconclusive: 25.1 µM [inhibitor, single point]
64 | CC(C)OC(=O)/C(C#N)=C/c1ccc(-c2ccc(SC(F)F)cc2)o1 |  | inconclusive: 1.26 µM [activator, single point]
65 | C=CCNC(=O)CCNS(=O)(=O)c1ccc(Br)cc1 | inactive: 4.4% | 
66 | O=C(NC1=NCCS1)c1ccccc1 | inactive: -0.53% | 
67 | CN1c2ccccc2N(C)C1(C)c1cccc2ccccc12 |  | inconclusive: 35.5 µM [inhibitor, single point]
